Experimental data as given in patent publication US20090118365A1, “Use of Prodrugs of GABA B Agonists for Treating Neuropathic and Musculoskeletal Pain” (XenoPort, Inc, priority 2007, published 2009).
Some entries share one result that the patent states for a list of compounds. At least one structure is not confirmed: it was looked up by name or label, or the drawing left a doubt.

Assays:
[1] = Intracolonic absorption of prodrugs of GABAB agonists in cynomolgus monkeys; conditions: bolus into colon, 5 mg (R)-baclofen-eq/kg
[2] = Intracolonic absorption of prodrugs of GABAB agonists in rats; conditions: solution directly into colon, 10 mg baclofen equivalents per kg
[3] = Oral bioavailability of prodrugs as (R)-baclofen in cynomolgus monkeys; conditions: oral gavage, 5 mg (R)-baclofen-eq/kg

Row | SMILES | area under the baclofen plasma concentration vs. time curve (AUC) relative to colonic administration of (R)-baclofen itself [1] | maximum plasma concentration of (R)-baclofen (Cmax) relative to colonic administration of (R)-baclofen itself [1] | area under the baclofen plasma concentration vs. time curve (AUC) relative to colonic administration of (R)-baclofen itself [2] | maximum plasma concentration of (R)-baclofen (Cmax) relative to colonic administration of (R)-baclofen itself [2] | (R)-baclofen exposure relative to colonic administration of (R)-baclofen itself [1] | oral bioavailability as (R)-baclofen [3]
1 | CC(=O)OC(OC(=O)NC[C@H](CC(=O)OCc1ccccc1)c1ccc(Cl)cc1)C(C)C (stereo partly drawn) [benzyl 4-[(1-acetoxyisobutoxy)carbonylamino]-(3R)-(4-chlorophenyl)-butanoate] | > 2 fold | > 2 fold | – | – | – | –
2 | O=C([O-])C[C@@H](CNC(=O)OCOC(=O)c1ccccc1)c1ccc(Cl)cc1.[Na+] [sodium 4-[(benzoyloxymethoxy)carbonylamino]-(3R)-(4-chlorophenyl)-butanoate] | > 2 fold | > 2 fold | > 2 fold | > 2 fold | – | –
3 | CC(C)C(=O)O[C@@H](OC(=O)NC[C@H](CC(=O)[O-])c1ccc(Cl)cc1)C(C)C.[Na+] [sodium 4-{[(1S)-isobutanoyloxyisobutoxy]carbonylamino}-(3R)-(4-chlorophenyl)-butanoate] | – | – | > 2 fold | > 2 fold | greater than 10 fold | greater than 80%
4 | CC(C)C(=O)OC(OC(=O)NC[C@H](CC(=O)[O-])c1ccc(Cl)cc1)C(C)C.[Na+] (stereo partly drawn) [sodium 4-[(1-isobutanoyloxyisobutoxy)carbonylamino]-(3R)-(4-chlorophenyl)-butanoate] | – | – | > 2 fold | > 2 fold | – | –
5 | CCCC(=O)OC(OC(=O)NC[C@H](CC(=O)[O-])c1ccc(Cl)cc1)C(C)C.[Na+] (stereo partly drawn) [sodium 4-[(1-butanoyloxyisobutoxy)carbonylamino]-(3R)-(4-chlorophenyl)-butanoate] | – | – | > 2 fold | > 2 fold | – | –
6 | CC(C)C(=O)O[C@H](OC(=O)NC[C@H](CC(=O)[O-])c1ccc(Cl)cc1)C(C)C.[Na+] [sodium 4-{[(1R)-isobutanoyloxyisobutoxy]carbonylamino}-(3R)-(4-chlorophenyl)-butanoate] | – | – | > 2 fold | > 2 fold | greater than 10 fold | –
7 | CCOC(C)(OCC)C(=O)OCOC(=O)NC[C@H](CC(=O)[O-])c1ccc(Cl)cc1.[Na+] [sodium 4-[(2,2-diethoxypropanoyloxymethoxy)carbonylamino]-(3R)-(4-chlorophenyl)-butanoate] | > 2 fold | > 2 fold | > 2 fold | > 2 fold | – | –
8 | CC(OC(=O)NC[C@H](CC(=O)[O-])c1ccc(Cl)cc1)OC(=O)c1ccccc1.[Na+] (stereo partly drawn) [sodium 4-[(1-benzoyloxyethoxy)carbonylamino]-(3R)-(4-chlorophenyl)-butanoate] | > 2 fold | > 2 fold | > 2 fold | > 2 fold | – | –
